1 molecule from article PMC12440823 can be followed below.

Results are given in words; binding and its absence hold for the method and conditions named. In cells and extracts the contact can be indirect. A yes stands for co-enrichment or nearness to the bait. Other partners may have been found. Sequences can lack the tags named with a protein.

This assay has as its target T1, FLAG-tagged Ada3 (S. cerevisiae) (UniProt P32494).
T1 sequence: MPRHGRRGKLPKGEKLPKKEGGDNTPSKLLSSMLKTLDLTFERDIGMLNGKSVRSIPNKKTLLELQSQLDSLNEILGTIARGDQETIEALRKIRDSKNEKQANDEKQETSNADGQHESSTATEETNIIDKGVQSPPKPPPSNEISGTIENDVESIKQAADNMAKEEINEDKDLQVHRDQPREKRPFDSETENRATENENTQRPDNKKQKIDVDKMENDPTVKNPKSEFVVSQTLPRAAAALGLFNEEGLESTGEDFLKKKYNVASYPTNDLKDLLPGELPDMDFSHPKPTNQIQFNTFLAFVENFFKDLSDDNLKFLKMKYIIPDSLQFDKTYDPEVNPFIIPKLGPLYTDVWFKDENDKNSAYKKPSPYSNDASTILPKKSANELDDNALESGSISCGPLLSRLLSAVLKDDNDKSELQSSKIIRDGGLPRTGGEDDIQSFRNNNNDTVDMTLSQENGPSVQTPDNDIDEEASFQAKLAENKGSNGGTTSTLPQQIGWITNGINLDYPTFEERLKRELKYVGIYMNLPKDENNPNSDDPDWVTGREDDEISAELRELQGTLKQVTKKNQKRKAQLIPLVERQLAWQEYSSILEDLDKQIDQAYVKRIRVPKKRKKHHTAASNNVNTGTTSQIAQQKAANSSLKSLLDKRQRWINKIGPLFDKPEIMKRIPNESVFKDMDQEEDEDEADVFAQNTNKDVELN
Briefly: affinity purification with mass spectrometry; Ada3-3xFLAG captured on anti-FLAG-M2 beads (3 h, 4 °C) from benzonase-treated, precleared yeast lysate; cells grown under control conditions or 200 mM HU for 2 h; untagged BY4741 as background; interactors called by SAINT probability of 1.

B1: SAGA subunit Spt8 (protein, UniProt P38915 1-602)
chain: MDEVDDILINNQVVDDEEDDEEMLSGLENDSKQDLEGNDDGGEDEEDDDDDDEDDDDDEDEREDDDEQEDDDGEDDAARMDKTATPTNEHQHDEQKAAAAGAGGAGDSGDAVTKIGSEDVKLSDVDGGVGSREASSSTHEASANGEVYEYYKHMLNAAQIADSYNIYPTAAIPIQTHVNALAVSRGLKYLFLGGSDGYIRKYDLLNTLEGKLSLTILQKHSLAESIQNAGILQSYWENEIPQKKSEMKLSANKTDYEPKVSPVHSLEVQSECLFILSGLQNGGITMQGVRYMEGSIAHYFKGRNGHTQIVNILRLNGQEDRFLSGSWDKRLLEWDLQTGDIVNEFKKSRSELSSLEMRPLYSSVDVSGNVNSGKENENADDDMDSLFGDEDEDEKQDAGNEPVETGDGSNGEENKEQISEESLNIVYDESVFMTSGLNGSVHIWDRRMTQSPALSLERGAGVPPWCLSACWGVDGDHVYAGRRNACVEQFDLKMPSKPIHNLKLPSISGPVSCVKAMPNNKHLLCASRDNIRLYNVEIAVDASNSTTKSSKVPFLIVPGHHGGIISNLYLDPTSRFIISTSGNRGWQGNSTDTTLIYDIDLE
With B1, the binding result is “binds”.
